Results reported in US20060210520A1, “Macadamia lipid based surfactants and derivatives and process for preparing same” (Finetex, Inc., priority 2005, published 2006).

Experiments:
[1] = Comparative conditioning properties: wet and dry comb, flyaway, rating 1 best, 10 poor (Example 38); details: 2.5% active conditioner in conditioner base, hair tresses
[2] = Foam test of Macadamia oil-based surfactants (Example 30); assay type: physicochemical; details: 0.1 gram surfactant in 100 ml. water, 10 strokes; for Initial height (0 minutes) / Final height (5 minutes): foam height; for Final height (5 minutes): after 5 minutes

CCCCCCCCCCCCCCCC[N+](C)(C)C.[Cl-] [Cetrimonium Chloride]
Dry Comb [1]: 3
Wet Comb [1]: 7

CCCCCCCCCCCCCCCCCC[N+](C)(C)Cc1ccccc1.[Cl-] [Stearylalkonium Chloride]
Dry Comb [1]: 5
Wet Comb [1]: 5

Cocobetaine [reference compound]
Durability of foam [2]: stable
Nature of foam [2]: mixture of thick
Initial height (0 minutes) [2]: 150 mL
Final height (5 minutes) [2]: 100 mL

Macadamia-amidopropylbetaine [Example 4]
Durability of foam [2]: stable
Nature of foam [2]: uniform thick rich
Initial height (0 minutes) [2]: 170 mL
Final height (5 minutes) [2]: 150 mL

Sodium Methyl Cocoyl Taurate [TAURANOL WS CONS]
Durability of foam [2]: stable
Nature of foam [2]: large bubbles
Initial height (0 minutes) [2]: 200 mL
Final height (5 minutes) [2]: 150 mL
